# Data published in PubChem BioAssay AID1259354 (Paczesny and Yang Labs, IUPUI and University of Michigan, 2018).
# Chains of the proteins cited; added tags and fusions are not shown. Lines headed by an entry give the natural chain unless they say otherwise; changes in a name come on top.
# UniProt Q01638: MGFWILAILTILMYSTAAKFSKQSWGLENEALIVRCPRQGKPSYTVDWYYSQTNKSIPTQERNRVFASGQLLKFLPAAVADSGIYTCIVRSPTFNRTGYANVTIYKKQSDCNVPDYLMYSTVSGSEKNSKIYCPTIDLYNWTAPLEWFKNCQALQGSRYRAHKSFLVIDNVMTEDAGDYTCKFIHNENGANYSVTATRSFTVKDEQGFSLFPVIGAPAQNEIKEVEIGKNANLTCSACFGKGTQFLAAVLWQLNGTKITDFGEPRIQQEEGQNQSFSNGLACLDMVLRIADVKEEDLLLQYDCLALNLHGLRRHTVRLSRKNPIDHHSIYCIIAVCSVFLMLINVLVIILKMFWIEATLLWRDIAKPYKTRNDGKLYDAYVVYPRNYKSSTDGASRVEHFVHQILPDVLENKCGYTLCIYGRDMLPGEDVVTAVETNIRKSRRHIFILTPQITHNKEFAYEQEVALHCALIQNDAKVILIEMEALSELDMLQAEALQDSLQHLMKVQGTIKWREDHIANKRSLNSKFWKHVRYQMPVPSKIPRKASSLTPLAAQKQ
# Among all 78,000 compounds or so, about 1,800 (2.3%) were called active. Inconclusive means that the source gave no clear call. Such entries were picked first, then a sample of the others. Rule as the data show it: active = inhibition above about 30%; inconclusive = mostly about 10% to 28%; inactive = weaker than that.
# Target: Interleukin-1 receptor-like 1 (Homo sapiens) (UniProt Q01638)
# Assay: blocks human ST2 binding to IL-33, primary screen, biochemical, AlphaLISA (AID 1259354)
# Conditions: AlphaLISA ST2-Fc/biotin-IL-33 interaction, 1 h; at 17 µM, stronger effect = higher value
row,SMILES,inhibition
1,O=C1CCCN1C1CCN(CCc2nc3ccc(F)cc3[nH]2)CC1,inconclusive: 10%
2,CC1(C)O[C@@H]2[C@@H](O1)[C@H](n1cnc3c(N)ncnc31)O[C@@H]2C(=O)O,inactive
3,Cc1cccc(-c2nnc(-c3nc(NCCc4ccco4)c4ccccc4n3)o2)c1,inconclusive: 14%
4,N#CC1=C(N)Oc2n[nH]c(-c3ccc4c(c3)OCO4)c2C1c1cccnc1 (stereo not given),inconclusive: 15%
5,O=C(NC[C@H]1O[C@@H](CO)[C@@H](O)[C@H]1N1CCN(c2cccc(C(F)(F)F)c2)CC1)C1CCCC1,inconclusive: 11%
6,COCCN1C(=O)N(C(C)C)C(=O)C12CCN(Cc1c(F)cccc1Cl)CC2,inactive
7,C=C(C)C1CC=C(C(=O)O)CC1 (stereo not given),inconclusive: 16%
8,O=C1OC(c2cc([N+](=O)[O-])ccc2Cl)=N/C1=C\c1ccccc1Br,inconclusive: 16%
9,COc1cc(/C=C2/C(=O)NN(c3ccccc3)C2=O)ccc1OCC#N,inconclusive: 15%
10,O=C1C=CC(=NOC(=O)/C=C\c2ccccc2)C=C1,inconclusive: 16%
11,Clc1ccc2c(NCC3CCCO3)nc(CN3CCSCC3)nc2c1 (stereo not given),inconclusive: 17%
12,CC1CCN(C(=O)CN2Cc3ccccc3OC(c3ccccc3F)C2)CC1 (stereo not given),inactive
13,O[C@@H]1C[C@@H](c2nc(-c3ccc4c(c3)OCO4)no2)N(Cc2cccc(OC(F)(F)F)c2)C1,inconclusive: 17%
14,CCN(CC(=O)N1CCCc2c1c(=O)oc1ccc(O)cc21)c1cccc(C)c1,inconclusive: 21%
15,O=C(CCC1CCN(C(=O)C2CC=CCC2)CC1)NCc1cccnc1 (stereo not given),inactive
16,NC(=Nc1nc2c(c(=O)[nH]1)CCC2)Nc1ccccc1,inconclusive: 13%
17,C/C=C(\C)C(=O)OC(COc1c2occc2c(OC)c2ccc(=O)oc12)C(C)(C)O (stereo not given),inactive
18,CCCOc1c(CNC(=O)C2CC3(CCNCC3)CN2)cccc1OC (stereo not given),inactive
19,N/C(=N/OC(=O)N1c2ccccc2Sc2ccccc21)c1cccnc1,inconclusive: 23%
20,C/C=C(/C)C(=O)OC1c2c(ccc3ccc(=O)oc23)OC(C)(C)C1O (stereo not given),inconclusive: 10%
21,CN(C)C(=O)c1nn(Cc2ccccc2)c2c1CN(C(=O)c1ccc(F)c(F)c1)CC2,inactive
22,O=C(Nc1ccc(F)cc1)c1ccc(Cl)c(Cl)c1,inactive
23,Cc1ccc(S(=O)(=O)Nc2ccc3oc(C)c(C(=O)OC(C)C)c3c2)c(C)c1,inconclusive: 10%
24,COc1ccc(N=c2oc3ccccc3cc2C(=O)Nc2ccccc2OC)cc1,inconclusive: 11%
25,COc1ccc(CCN2CC(NC(=O)c3oc(C)cc3C)CC2=O)cc1 (stereo not given),inconclusive: 16%

# 3 structures out of the list, sorted by heavy-atom count, descending:
row,SMILES,inhibition
21,CN(C)C(=O)c1nn(Cc2ccccc2)c2c1CN(C(=O)c1ccc(F)c(F)c1)CC2,inactive
9,COc1cc(/C=C2/C(=O)NN(c3ccccc3)C2=O)ccc1OCC#N,inconclusive: 15%
10,O=C1C=CC(=NOC(=O)/C=C\c2ccccc2)C=C1,inconclusive: 16%
